Measurements: patent publication US20220283177A1, “METHOD FOR DETECTING INTERACTION AND AFFINITY BETWEEN LIGAND AND PROTEIN” (DALIAN INSTITUTE OF CHEMICAL PHYSICS, CHINESE ACADEMY OF …, priority 2019, published 2022)
At least one compound was matched to its structure with a doubt left.

Protein sequences, listed by entry. Tags and fused reporters are not part of them. Residues count along the entry.
UniProt P49821, 21-464: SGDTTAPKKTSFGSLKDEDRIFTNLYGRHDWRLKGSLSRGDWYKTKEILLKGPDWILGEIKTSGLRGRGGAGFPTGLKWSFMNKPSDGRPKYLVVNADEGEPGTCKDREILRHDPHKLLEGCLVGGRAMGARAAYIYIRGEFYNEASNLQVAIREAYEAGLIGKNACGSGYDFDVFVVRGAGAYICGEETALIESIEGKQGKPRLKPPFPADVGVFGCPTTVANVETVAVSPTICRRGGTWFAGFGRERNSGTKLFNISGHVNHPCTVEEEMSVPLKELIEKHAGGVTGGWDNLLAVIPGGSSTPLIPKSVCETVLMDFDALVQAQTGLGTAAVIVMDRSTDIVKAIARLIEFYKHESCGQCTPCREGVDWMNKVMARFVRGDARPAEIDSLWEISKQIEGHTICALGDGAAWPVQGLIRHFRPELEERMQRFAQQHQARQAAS

Legend:
[1] = biological target: T1, NDUFV1 (Homo sapiens, UniProt P49821); assay: Affinity evaluation by solvent mixture-based SIP dose response (western blotting); conditions: HeLa cell lysate, 15% A.E.A.
[2] = biological target: T1, NDUFV1; assay: Solvent mixture (A.E.A.)-based SIP, western blotting, geldanamycin off-target; conditions: 100 μM geldanamycin, HeLa cell lysate, up to 17% A.E.A.

COC1=C2C[C@@H](C)C[C@H](OC)[C@H](O)[C@@H](C)/C=C(\C)[C@H](OC(N)=O)[C@@H](OC)/C=C\C=C(/C)C(=O)NC(=CC1=O)C2=O [geldanamycin]
concentration of full occupancy of NDUFV1 [1]: 100 µM | abundance of NDUFV1 with drug by western blotting [2]: kept constant
